# Source: US6930091B2, “Peptides and remedy for bone diseases containing the same as active ingredient” (priority 1995, dated 2005)
# Not every detail of the peptide structures is certain; ends, links or a residue may be inferred. Where no end group is shown, it is not given here.
# Assays:
# [1] = system: ROS cells, which are osteoblasts; experiment: Growth promotion of osteoblasts (MTT assay); assay type: cell-based, rat; conditions: for Rate of Growth Promotion: 24 hours, control group = 100%
# [2] = system: receptors present on the cell surface of ROS cells (osteoblast); experiment: Competing reaction of unlabeled peptide with biotinized peptide on ROS cells; assay type: binding, rat; conditions: 6 hours
sequence,measurement,setting,value
"KLTTIFPLNWKYRKAL [Example 1, Lys Leu Thr Thr Ile Phe Pro Leu Asn Trp Lys Tyr Arg Lys Ala Leu]",Rate of Growth Promotion,[1]; 0.001 μg/well peptide added,109.6%
same,Rate of Growth Promotion,[1]; 0.01 μg/well peptide added,110.5%
same,Rate of Growth Promotion,[1]; 0.1 μg/well peptide added,636.2%
same,Rate of Growth Promotion,[1]; 1.0 μg/well peptide added,1317.1%
same,Growth promotion effects on osteoblasts (in words),[1]; summary of Table 1,provides growth promotion effects on osteoblasts
same,Ratio to the Labeled Peptide,[2]; 0.032 μg/well unlabeled peptide added,98.4%
same,Ratio to the Labeled Peptide,[2]; 0.064 μg/well unlabeled peptide added,86.5%
same,Ratio to the Labeled Peptide,[2]; 0.128 μg/well unlabeled peptide added,79.6%
same,Ratio to the Labeled Peptide,[2]; 0.256 μg/well unlabeled peptide added,34.1%
same,Ratio to the Labeled Peptide,[2]; 0.512 μg/well unlabeled peptide added,29.5%
